# PubChem BioAssay AID1259354 (Paczesny and Yang Labs, IUPUI and University of Michigan, 2018)
# Protein sequences, listed by entry. Tags and fused reporters are not part of them. Lines headed by an entry give the natural chain unless they say otherwise; changes in a name come on top.
# UniProt Q01638: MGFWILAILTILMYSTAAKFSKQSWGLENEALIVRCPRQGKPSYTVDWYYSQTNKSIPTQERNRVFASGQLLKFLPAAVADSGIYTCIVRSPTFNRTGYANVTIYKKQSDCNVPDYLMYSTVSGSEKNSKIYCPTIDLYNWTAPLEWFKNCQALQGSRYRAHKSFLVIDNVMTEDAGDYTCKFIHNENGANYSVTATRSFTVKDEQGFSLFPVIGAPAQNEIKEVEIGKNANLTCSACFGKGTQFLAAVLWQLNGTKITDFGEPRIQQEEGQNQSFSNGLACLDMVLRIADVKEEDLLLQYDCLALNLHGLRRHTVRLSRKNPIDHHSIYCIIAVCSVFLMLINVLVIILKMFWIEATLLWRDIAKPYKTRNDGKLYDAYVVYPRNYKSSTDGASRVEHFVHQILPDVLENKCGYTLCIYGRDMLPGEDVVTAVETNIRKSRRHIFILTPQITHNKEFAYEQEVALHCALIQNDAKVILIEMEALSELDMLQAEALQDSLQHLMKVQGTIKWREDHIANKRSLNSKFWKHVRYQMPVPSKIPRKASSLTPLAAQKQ
# The campaign covered roughly 78,000 compounds. About 1,800 (2.3%) were called active. The inconclusive results got no clear call from the source; some entries with a clear call stand among them for comparison. No stated cut-off is given here; in the data, active means inhibition above about 30%; inconclusive means mostly about 10% to 28%; inactive means weaker than that.
# Molecular target: Interleukin-1 receptor-like 1 (Homo sapiens) (UniProt Q01638)
# Assay: blocks human ST2 binding to IL-33, primary screen, biochemical, AlphaLISA (AID 1259354)
# Conditions: AlphaLISA ST2-Fc/biotin-IL-33 interaction, 1 h; at 17 µM, active compounds read high
row,SMILES,inhibition
1,c1ccc(-c2cnn3cc(CN4CCCC4c4ccccn4)cnc23)cc1 (stereo unspecified),inconclusive: 24%
2,O=C(CCN1CCCCO1)NCc1cccnc1N1CCCCCCC1,inactive
3,N#Cc1ccc([N+](=O)[O-])cc1C#N,inactive
4,NS(=O)(=O)c1ccc(-n2cccc2C=Nc2ccc3[nH]c(=O)[nH]c3c2)cc1,inactive
5,Clc1cccc2c3c([nH]c12)CCN(Cc1cc2n(n1)CCNC2)C3,inactive
6,Cc1c(CC(=O)N2CCSCC2)c2c(n1CC1CCCO1)CCCC2=O (stereo unspecified),inconclusive: 20%
7,CCN(Cc1cccc(OC)c1)C(=O)c1cccc2nccnc12,inconclusive: 25%
8,Cc1csc(=Nc2ccccc2)n1CC(O)c1ccc([N+](=O)[O-])cc1 (stereo unspecified),active: 39%
9,Cn1ccnc1-c1ccc(N2CCc3onc(-c4ccccc4F)c3C2)nn1,inconclusive: 12%
10,CCC(=O)N1CCN=C1SCc1ccc(C)cc1,inconclusive: 10%
11,Cc1cc(Cl)ccc1OCC(=O)N1CCCC(c2nc(-c3ccncc3)ncc2-c2ccccc2)C1 (stereo unspecified),inconclusive: 13%
12,O=C(Cc1cscn1)N1CCC(C2(c3ccccn3)NC(=O)N(CCc3cccs3)C2=O)CC1 (stereo unspecified),inconclusive: 16%
13,N#Cc1sc2nc(-c3cccs3)cc(C(F)(F)F)c2c1N,inactive
14,Cc1nn(-c2ccc(S(N)(=O)=O)cc2)c(C)c1-c1ccc(Cl)c(Cl)c1,inconclusive: 15%
15,Cc1ccc(-c2noc([C@@H]3C[C@H](NC(=O)Nc4ccc(Cl)cc4)CN3C)n2)cc1,inconclusive: 18%
16,Cc1cc(C)c(CN2C[C@H]3C[C@H](O)[C@@H](O)C[C@H]3C2)c(-n2cccn2)c1,inactive
17,N#CC1=C(N)OC2=C(C(=O)CCC2)C1c1ccc(Oc2ccc([N+](=O)[O-])cc2Cl)cc1 (stereo unspecified),inconclusive: 16%
18,CCc1ccc(N(CC(=O)Nc2cccnc2)S(=O)(=O)c2ccccc2)cc1,inconclusive: 12%
19,O=[N+]([O-])c1c(Nc2ccccc2)sc2ccccc12,active: 37%
20,CC1CCCCN1C1CN(Cc2ccc(S(C)(=O)=O)cc2)C1 (stereo unspecified),inconclusive: 15%
21,CCOCCCNc1c(CC)c(C)c(C#N)c2nc3ccccc3n12,inconclusive: 17%

row,SMILES,inhibition
1,OC1(c2cccc(C(F)(F)F)c2)CCN(Cc2c(F)cccc2F)CC1,inconclusive: 14%
2,CCOC(=O)c1c(NC(=O)CSc2cn(CC)c3ccccc23)sc2c1CCCC2,inactive
3,O=C(CCS(=O)(=O)c1ccc(Br)s1)NCc1ccc(F)cc1,inactive
4,O=C(Nc1ccc(F)cc1F)c1ccccc1I,inactive
5,CCOC(=O)C1CCCN(C(=O)CCc2nc(-c3ccccc3F)no2)C1 (stereo unspecified),inactive
6,Oc1ccc(Cl)cc1N=Cc1cc(Br)cc(Cl)c1O,inconclusive: 18%
7,CCc1ccc(CN2CCC(N3CCCC(C(=O)N4CCCC4)C3)CC2)o1 (stereo unspecified),inactive
8,CCOC(=O)C1(CC2CCCCO2)CCN(C(=O)C#Cc2ccccc2)CC1 (stereo unspecified),inactive
9,COc1ccc(OC)c(NC(=O)CN(c2cccc(C)c2C)S(C)(=O)=O)c1,inconclusive: 12%
10,Cc1cc(C)c2c(=O)[nH]c(SCC(=O)Nc3ccc(Br)cc3)nc2n1,inconclusive: 13%
11,O=C(CC(c1ccccc1)c1ccccc1Cl)N1CCC(N2CCCC2)CC1 (stereo unspecified),inactive
12,CCC(C)NC(=O)C1CCCN(S(C)(=O)=O)C1 (stereo unspecified),inconclusive: 11%
13,COc1cnn(-c2ccc([N+](=O)[O-])cc2)c(=O)c1Cl,inconclusive: 13%
14,CC(=O)Nc1sc2c(c1C#N)CCC2,inactive
15,Cc1ccc(-n2c(=O)c3sccc3n(CC(N)=O)c2=O)cc1,inconclusive: 14%
16,c1ccc(-c2cn(C3CCN(c4cc(-n5cccn5)ncn4)CC3)nn2)nc1,inconclusive: 16%
17,CCNc1ccc(Cl)cc1[N+](=O)[O-],active: 31%
18,CC1(C)Cc2cc(CN3CCCC(N4CCCC4=O)C3)ccc2O1 (stereo unspecified),inconclusive: 10%
19,C=C(C)COc1cccc(C(=O)N2CCCC(C(=O)O)C2)c1 (stereo unspecified),inconclusive: 18%
20,O=C(c1ccc(Cl)c(Cl)c1)N1CCN(c2ccc(N3CCOCC3)nn2)CC1,inconclusive: 25%
21,CCN1CCN(c2ncnc3c2cnn3-c2cccc(C)c2)CC1,inconclusive: 17%

# Fetched by compound from above:
row,SMILES,inhibition
15,Cc1ccc(-n2c(=O)c3sccc3n(CC(N)=O)c2=O)cc1,inconclusive: 14%
12,O=C(Cc1cscn1)N1CCC(C2(c3ccccn3)NC(=O)N(CCc3cccs3)C2=O)CC1 (stereo unspecified),inconclusive: 16%
14,Cc1nn(-c2ccc(S(N)(=O)=O)cc2)c(C)c1-c1ccc(Cl)c(Cl)c1,inconclusive: 15%

# Next records:

row,SMILES,inhibition
1,CCOc1ccc(-c2cn(-c3ccc(OCC)cc3)c(=O)[nH]2)cc1,inconclusive: 21%
2,Cc1cc(C(=C(Cl)Cl)c2cc(C)c(O)c([N+](=O)[O-])c2)cc([N+](=O)[O-])c1O,inconclusive: 13%
3,O=C(c1ccc(Oc2ccccc2)cc1)C1CCCN(CCn2cncn2)C1 (stereo unspecified),inconclusive: 29%
4,CCOc1ccc(/C=C(\C#N)c2nc(-c3ccc(OCC)cc3)cs2)cc1,active: 33%
5,COc1ccccc1CNc1ccc2c(c1)ncn2C1CCCCC1,active: 33%
6,COCC1(C(=O)N2CCC3(CC2)c2ccccc2[C@@H](N)[C@@H]3O)CCC1,inconclusive: 29%
7,Cc1ccc(CN2CCC(CN(C)Cc3cc4ccccc4[nH]3)CC2)o1,inconclusive: 17%
8,N#CC1=C2SCN(c3ccccc3)CN2C(=O)CC1c1ccccc1F (stereo unspecified),inconclusive: 16%
9,COc1ccccc1NC(=O)CCNC(=O)c1ccc2c(c1)CCO2,inconclusive: 29%
10,CCc1ccc(-c2nc(CN3CCCC(C(=O)NCC4CCCO4)C3)c(C)o2)cc1 (stereo unspecified),inconclusive: 10%
11,O=C(C1CC1)N1CCc2cc(Br)cc(S(=O)(=O)NCCN3CCCCCC3)c21,inconclusive: 11%
12,CCOc1ccc(NC(=O)NCCc2nc3cccnc3n2-c2ccccc2)cc1,inconclusive: 16%
13,O=C(C1CNCCN1C(=O)CCc1cc(Cl)no1)N1CCOCC1 (stereo unspecified),inactive
14,O=C(CCNC(=O)c1ccc(F)cc1)NCc1cnc2ccccn12,inconclusive: 12%
15,Cc1ncccc1C(=O)N1CCc2c(c(C(=O)O)nn2C)C1,inconclusive: 11%
16,Cc1ccccc1-c1ncc(CN(C)Cc2n[nH]c3c2CCC3)s1,inconclusive: 12%
17,O=C(c1ccc(C2CCCO2)s1)N1CCC(O)(CO)CC1 (stereo unspecified),inconclusive: 11%
18,Cc1nc2ccccc2n1C(=O)c1ccc([N+](=O)[O-])cc1,inactive
19,NS(=O)(=O)c1cc2c(cc1Cl)NCNS2(=O)=O,inconclusive: 12%
